Assay results as given in article PMC4498735, “Fibulin-1C, C1 Esterase Inhibitor and Glucose Regulated Protein 75 Interact with the CREC Proteins, Calumenin and Reticulocalbin” (PLoS ONE, 2015).
These are yes or no findings as the source states them, for the method shown. In cells and extracts the contact can be indirect. These calls come from enrichment with a bait or labelling near it, and not all partners need be listed.

By UniProt entry, the sequences of proteins in these tests, tags left out. Residues count along the entry.
UniProt O43852, residues 20-315: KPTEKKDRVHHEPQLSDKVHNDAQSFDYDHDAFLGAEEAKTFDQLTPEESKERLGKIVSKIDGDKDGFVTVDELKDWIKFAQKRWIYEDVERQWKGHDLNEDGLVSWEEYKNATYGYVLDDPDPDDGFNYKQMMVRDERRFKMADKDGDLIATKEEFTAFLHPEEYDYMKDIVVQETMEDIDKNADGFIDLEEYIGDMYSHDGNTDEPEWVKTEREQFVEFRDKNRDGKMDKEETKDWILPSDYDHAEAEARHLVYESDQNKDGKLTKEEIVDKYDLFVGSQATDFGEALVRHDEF
UniProt P07996, residues 19-1170: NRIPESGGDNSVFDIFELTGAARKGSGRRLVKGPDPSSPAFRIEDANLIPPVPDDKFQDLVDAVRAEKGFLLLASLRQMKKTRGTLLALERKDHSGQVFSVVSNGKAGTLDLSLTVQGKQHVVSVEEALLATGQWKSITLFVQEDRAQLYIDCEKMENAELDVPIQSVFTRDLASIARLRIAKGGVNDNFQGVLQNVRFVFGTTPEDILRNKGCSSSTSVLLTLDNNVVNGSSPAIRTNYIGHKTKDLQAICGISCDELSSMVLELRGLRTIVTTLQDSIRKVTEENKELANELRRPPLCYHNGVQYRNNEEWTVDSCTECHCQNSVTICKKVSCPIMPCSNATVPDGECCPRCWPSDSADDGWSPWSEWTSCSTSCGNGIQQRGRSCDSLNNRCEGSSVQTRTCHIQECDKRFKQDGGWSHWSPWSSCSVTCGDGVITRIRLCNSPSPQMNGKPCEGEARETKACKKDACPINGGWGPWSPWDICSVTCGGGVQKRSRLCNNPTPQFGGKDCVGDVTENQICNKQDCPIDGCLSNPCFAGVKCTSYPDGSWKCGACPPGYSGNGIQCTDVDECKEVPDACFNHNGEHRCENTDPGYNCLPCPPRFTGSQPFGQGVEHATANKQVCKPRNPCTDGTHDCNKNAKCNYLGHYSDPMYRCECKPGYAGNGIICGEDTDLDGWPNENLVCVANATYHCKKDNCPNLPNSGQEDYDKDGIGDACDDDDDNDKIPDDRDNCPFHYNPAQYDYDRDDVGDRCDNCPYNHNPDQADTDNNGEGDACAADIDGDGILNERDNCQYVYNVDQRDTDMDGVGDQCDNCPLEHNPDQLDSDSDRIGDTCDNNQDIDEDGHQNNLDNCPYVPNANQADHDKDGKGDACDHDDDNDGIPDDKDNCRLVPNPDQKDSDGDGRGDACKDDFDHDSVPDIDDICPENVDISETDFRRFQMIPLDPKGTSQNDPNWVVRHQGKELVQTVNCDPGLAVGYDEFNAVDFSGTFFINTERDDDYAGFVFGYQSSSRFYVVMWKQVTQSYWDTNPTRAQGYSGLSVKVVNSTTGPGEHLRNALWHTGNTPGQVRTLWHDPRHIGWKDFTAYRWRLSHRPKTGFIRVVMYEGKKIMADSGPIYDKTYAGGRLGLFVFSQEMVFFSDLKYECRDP

Tests used:
[1] = biological target: recombinant calumenin (immobilised; construct not told) (UniProt O43852); experiment: affinity purification with mass spectrometry; recombinant calumenin or reticulocalbin coupled to CNBr activated sepharose 4B; dialyzed human placenta extract applied in MB-buffer (2 mM CaCl2, 1 mM MgCl2, 10 mM HEPES, 140 mM NaCl, pH 7.4); stepwise elution with 0.2 to 1 M NaCl and 1 M NaCl with EDTA; reference column without protein; 1D- and 2D-PAGE, silver staining, MALDI-TOF; only the target purified
[2] = biological target: recombinant reticulocalbin; experiment: as above

In the case of “thrombospondin-1 from human placenta extract (from UniProt P07996 19-1170)”, the binding [1] is reported as “binds”.

B1: fibulin-1 (C variant) from human placenta extract (protein, UniProt P23142-4 30-683)
chain: DVLLEACCADGHRMATHQKDCSLPYATESKECRMVQEQCCHSQLEELHCATGISLANEQDRCATPHGDNASLEATFVKRCCHCCLLGRAAQAQGQSCEYSLMVGYQCGQVFQACCVKSQETGDLDVGGLQETDKIIEVEEEQEDPYLNDRCRGGGPCKQQCRDTGDEVVCSCFVGYQLLSDGVSCEDVNECITGSHSCRLGESCINTVGSFRCQRDSSCGTGYELTEDNSCKDIDECESGIHNCLPDFICQNTLGSFRCRPKLQCKSGFIQDALGNCIDINECLSISAPCPIGHTCINTEGSYTCQKNVPNCGRGYHLNEEGTRCVDVDECAPPAEPCGKGHRCVNSPGSFRCECKTGYYFDGISRMCVDVNECQRYPGRLCGHKCENTLGSYLCSCSVGFRLSVDGRSCEDINECSSSPCSQECANVYGSYQCYCRRGYQLSDVDGVTCEDIDECALPTGGHICSYRCINIPGSFQCSCPSSGYRLAPNGRNCQDIDECVTGIHNCSINETCFNIQGGFRCLAFECPENYRRSAATRCERLPCHENRECSKLPLRITYYHLSFPTNIQAPAVVFRMGPSSAVPGDSMQLAITGGNEEGFFTTRKVSPHSGVVALTKPVPEPRDLLLTVKMDLSRHGTVSSFVAKLFIFVSAEL
With B1 the binding [1] was “binds” and the binding [2] was “binds”.

B2: C1 esterase inhibitor from human placenta extract (protein, UniProt P05155 23-500)
chain: NPNATSSSSQDPESLQDRGEGKVATTVISKMLFVEPILEVSSLPTTNSTTNSATKITANTTDEPTTQPTTEPTTQPTIQPTQPTTQLPTDSPTQPTTGSFCPGPVTLCSDLESHSTEAVLGDALVDFSLKLYHAFSAMKKVETNMAFSPFSIASLLTQVLLGAGENTKTNLESILSYPKDFTCVHQALKGFTTKGVTSVSQIFHSPDLAIRDTFVNASRTLYSSSPRVLSNNSDANLELINTWVAKNTNNKISRLLDSLPSDTRLVLLNAIYLSAKWKTTFDPKKTRMEPFHFKNSVIKVPMMNSKKYPVAHFIDQTLKAKVGQLQLSHNLSLVILVPQNLKHRLEDMEQALSPSVFKAIMEKLEMSKFQPTLLTLPRIKVTTSQDMLSIMEKLEFFDFSYDLNLCGLTEDPDLQVSAMQHQTVLELTETGVEAAAASAISVARTLLVFEVQQPFLFVLWDQQHKFPVFMGRVYDPRA
With B2 the binding [1] was “binds” and the binding [2] was “binds”.
